Measurements: publication doi:10.1101/2020.10.25.354415 (bioRxiv, 2020)
Results are given in words; binding and its absence hold for the method and conditions named. Some results given as binding are weak or reduced against the parent protein; the word gives no strength.

Protein sequences, listed by entry. Tags and fused reporters are not part of them. Residues count along the entry.
αE-catenin M1-M3 (aa273-651) (P26231, residues 273-651): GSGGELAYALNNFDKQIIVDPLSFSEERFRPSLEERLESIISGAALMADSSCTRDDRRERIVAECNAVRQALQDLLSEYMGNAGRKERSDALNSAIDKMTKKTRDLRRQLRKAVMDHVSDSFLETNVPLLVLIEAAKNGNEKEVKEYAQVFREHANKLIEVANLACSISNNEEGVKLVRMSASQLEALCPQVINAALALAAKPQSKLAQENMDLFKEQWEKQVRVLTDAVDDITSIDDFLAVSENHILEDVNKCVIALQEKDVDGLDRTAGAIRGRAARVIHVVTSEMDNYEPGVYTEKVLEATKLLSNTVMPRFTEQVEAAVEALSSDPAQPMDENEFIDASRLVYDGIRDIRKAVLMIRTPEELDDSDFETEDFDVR
αE-catenin M1-M2 (aa273-510) (P26231, residues 273-510): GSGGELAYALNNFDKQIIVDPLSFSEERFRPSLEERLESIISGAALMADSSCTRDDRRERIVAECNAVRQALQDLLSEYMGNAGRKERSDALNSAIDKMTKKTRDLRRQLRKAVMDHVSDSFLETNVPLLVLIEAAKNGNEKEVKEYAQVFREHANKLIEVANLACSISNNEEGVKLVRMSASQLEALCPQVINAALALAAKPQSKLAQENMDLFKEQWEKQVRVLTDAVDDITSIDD
UniProt P15116, residues 746-906: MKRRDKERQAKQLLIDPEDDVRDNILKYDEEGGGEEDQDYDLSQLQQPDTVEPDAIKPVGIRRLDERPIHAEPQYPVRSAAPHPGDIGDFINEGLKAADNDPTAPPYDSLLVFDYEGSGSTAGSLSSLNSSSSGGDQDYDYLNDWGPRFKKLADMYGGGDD

B1: vinculin D1 (aa1-259) (domain or fragment, UniProt P12003 1-259, looked up)
chain: MPVFHTRTIESILEPVAQQISHLVIMHEEGEVDGKAIPDLTAPVSAVQAAVSNLVRVGKETVQTTEDQILKRDMPPAFIKVENACTKLVRAAQMLQADPYSVPARDYLIDGSRGILSGTSDLLLTFDEAEVRKIIRVCKGILEYLTVAEVVETMEDLVTYTKNLGPGMTKMAKMIDERQQELTHQEHRVMLVNSMNTVKELLPVLISAMKIFVTTKNTKSQGIEEALKNRNFTVEKMSAEINEIIRVLQLTSWDEDAWA

Columns and labels:
β-catenin = biological target: T1, β-catenin (M. musculus, UniProt Q02248 1-781); assay: purified complex used as ITC sample
T1 sequence (looked up): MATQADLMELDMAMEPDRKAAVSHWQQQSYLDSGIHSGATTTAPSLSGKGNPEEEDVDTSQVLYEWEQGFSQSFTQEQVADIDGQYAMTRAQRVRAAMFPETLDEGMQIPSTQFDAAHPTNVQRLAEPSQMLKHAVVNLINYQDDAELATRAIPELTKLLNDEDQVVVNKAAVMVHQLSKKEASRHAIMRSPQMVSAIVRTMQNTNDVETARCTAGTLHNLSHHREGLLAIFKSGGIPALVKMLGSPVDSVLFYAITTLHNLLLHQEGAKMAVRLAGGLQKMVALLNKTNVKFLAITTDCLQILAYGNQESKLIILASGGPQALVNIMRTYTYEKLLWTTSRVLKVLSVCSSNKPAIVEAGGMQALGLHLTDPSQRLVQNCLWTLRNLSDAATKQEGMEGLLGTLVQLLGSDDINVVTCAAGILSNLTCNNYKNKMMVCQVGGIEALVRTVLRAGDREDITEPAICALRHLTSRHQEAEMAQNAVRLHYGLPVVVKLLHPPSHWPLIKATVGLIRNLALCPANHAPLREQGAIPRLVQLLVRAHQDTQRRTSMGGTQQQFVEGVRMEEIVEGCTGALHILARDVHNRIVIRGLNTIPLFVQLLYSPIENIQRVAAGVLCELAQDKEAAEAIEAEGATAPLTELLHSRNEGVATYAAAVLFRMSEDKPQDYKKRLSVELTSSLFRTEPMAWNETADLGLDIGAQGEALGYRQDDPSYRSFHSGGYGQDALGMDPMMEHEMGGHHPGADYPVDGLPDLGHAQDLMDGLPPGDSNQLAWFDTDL

[1] = biological target: αE-catenin M1-M3 (aa273-651) (M. musculus) (UniProt P26231); assay: ITC
[2] = biological target: αE-catenin M1-M2 (aa273-510) (M. musculus) (UniProt P26231); assay: ITC
[3] = biological target: T2, αT-catenin M1-M3 (aa260-626) (M. musculus, UniProt Q65CL1 260-626); assay: ITC
T2 sequence (looked up): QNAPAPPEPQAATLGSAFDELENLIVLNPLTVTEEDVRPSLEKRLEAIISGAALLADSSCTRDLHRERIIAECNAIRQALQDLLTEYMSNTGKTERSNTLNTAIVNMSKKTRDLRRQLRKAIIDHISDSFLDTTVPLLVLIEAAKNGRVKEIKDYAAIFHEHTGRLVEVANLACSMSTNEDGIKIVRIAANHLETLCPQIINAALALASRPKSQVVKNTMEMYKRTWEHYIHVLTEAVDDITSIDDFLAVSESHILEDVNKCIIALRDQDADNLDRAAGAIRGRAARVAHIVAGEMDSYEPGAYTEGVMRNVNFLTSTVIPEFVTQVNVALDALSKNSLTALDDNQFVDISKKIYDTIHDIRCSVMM

Row | Molecule | binding (β-catenin) | binding [1] | binding [2] | binding [3]
1 | N-cadherin cytoplasmic tail (from UniProt P15116 746-906) (domain or fragment) | binds | – | – | –
2 | B1 | – | binds weakly | binds | binds
